Earlier results, collected in patent publication US20240376517A1 (THE UNIVERSITY COURT OF THE UNIVERSITY OF EDINBURCH, priority 2021, published 2024).
At least one read-out could not be matched to a standard name with certainty. The star is where a group is joined. AMC = Cc1cc(=O)oc2cc(N*)ccc12

System: GzmB
Details: cited from earlier work

Ac-IEPD-{AMC} [reference compound]
kcat/KM: 3300 M⁻¹ s⁻¹
